Publication PMC6687201, “Atg11 tethers Atg9 vesicles to initiate selective autophagy” (PLoS Biology, 2019)

Biological target: GFP-tagged Atg11^Δdim (S. cerevisiae)
Experiment: co-IP; IP of GFP-tagged Atg11 or its fragments, co-IP of HA-tagged Atg9; lysates of log-phase growing and 2 h starved cells

binding: binds
B1: HA-tagged Atg9 (natural protein, S. cerevisiae, UniProt Q12142 1-997, looked up)
chain: MERDEYQLPNSHGKNTFLSRIFGLQSDEVNPSLNSQEMSNFPLPDIERGSSLLHSTNDSREDVDENDLRVPESDQGTSTEEEDEVDEEQVQAYAPQISDGLDGDHQLNSVTSKENVLETEKSNLERLVEGSTDDSVPKVGQLSSEEEEDNEFINNDGFDDDTPLFQKSKIHEFSSKKSNTIEDGKRPLFFRHILQNNRPQRDTQKLFTSSNAIHHDKDKSANNGPRNINGNQKHGTKYFGSATQPRFTGSPLNNTNRFTKLFPLRKPNLLSNISVLNNTPEDRINTLSVKERALWKWANVENLDIFLQDVYNYYLGNGFYCIILEKILNICTLLFVVFVSTYMGHCVDYSKLPTSHRVSDIIIDKCYSNSITGFTKFFLWMFYFFVILKIVQLYFDVQKLSELQNFYKYLLNISDDELQTLPWQNVIQQLMYLKDQNAMTANVVEVKAKNRIDAHDVANRIMRRENYLIALYNSDILNLSLPIPLFRTNVLTKTLEWNINLCVMGFVFNESGFIKQSILKPSQREFTREELQKRFMLAGFLNIILAPFLVTYFVLLYFFRYFNEYKTSPGSIGARQYTPIAEWKFREYNELYHIFKKRISLSTTLANKYVDQFPKEKTNLFLKFVSFICGSFVAILAFLTVFDPENFLNFEITSDRSVIFYITILGAIWSVSRNTITQEYHVFDPEETLKELYEYTHYLPKEWEGRYHKEEIKLEFCKLYNLRIVILLRELTSLMITPFVLWFSLPSSAGRIVDFFRENSEYVDGLGYVCKYAMFNMKNIDGEDTHSMDEDSLTKKIAVNGSHTLNSKRRSKFTAEDHSDKDLANNKMLQSYVYFMDDYSNSENLTGKYQLPAKKGYPNNEGDSFLNNKYSWRKQFQPGQKPELFRIGKHALGPGHNISPAIYSTRNPGKNWDNNNNGDDIKNGTNNATAKNDDNNGNNDHEYVLTESFLDSGAFPNHDVIDHNKMLNSNYNGNGILNKGGVLGLVKEYYKKSDVGR
notes: Atg9, transmembrane autophagy protein, yeast; also called HA-Atg9; source: yeast cells expressing HA-tagged Atg9, in lysate

No constants are given. Whether binding was seen depends on the method and setting. In cells and extracts the contact can be indirect. Binding calls can cover weak binding; strength is not graded here. Sequences can lack the tags named with a protein.
